The series in a line: general procedure: Fmoc solid-phase peptide synthesis; Sieber resin (0.6 mmol/g); HBTU/HOBt/DIPEA. As to conditions: whole synthesis, scale of the general procedure 100.0 g resin.

For the substance eptifibatide, the “final HPLC purity” value (run 1) was 99.28%; the “final HPLC purity” value (run 2) amounted to 99.10%; the “final HPLC purity” value (run 3) is given as 99.27%; the “final HPLC purity” value (run 4) worked out at 99.24%; the “final HPLC purity” value (run 5) was determined as 99.20%; the “final HPLC purity” value (run 6) is 99.27%. Moreover, the “final HPLC purity” value reads like this: (run 7) 99.24%; (run 8) 99.27%; (run 9) 99.14%.

Source of the values: patent publication US9562071 (dated 2017).
